PubChem BioAssay AID1259308 – NCATS, 2017
Test: 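Genes whose loss raises luciferase production in HEK293 cells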 (primary screen). Cells: human HEK293 embryonic kidney cells stably expressing firefly luciferase (HEK-CMV-Luc2-Hygro). Reagents: single siRNA against human genes, 0.8 pmol siRNA per well. Timing: 72 h. Detection: 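Reporter luminescence and viable-cell signal on separate replicate plates, given as percent of non-targeting control and median/MAD z-scores, plus per-cell luciferase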. Direction: total luciferase, z-score and total luciferase, % of control: higher = more reporter protein produced; luciferase per cell, z-score: higher = more reporter output per viable cell; viable cells, % of control: higher = more viable cells. Active means: 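Active when the median/MAD z-score for overall luciferase is greater than 3; a gene was taken forward for validation with new siRNAs if at least two of its three siRNAs passed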. Calls: active = raised luciferase; inactive = no rise.
Here is one part, drawn at random, of about 59,000 reagents tested. In the full data, about 1,510 (2.6%) were called active. 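Calls use total luciferase alone and ignore viability, so some active siRNAs may act by altering cell number.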 A number with no mark means an inactive call. Reagents against one gene are numbered here. No sequences are given here.

| gene | reagent no. | total luciferase, z-score | total luciferase, % of control | luciferase per cell, z-score | viable cells, % of control |
| --- | --- | --- | --- | --- | --- |
| TUBGCP2 (GeneID 10844) | 1 | 0.0466 | 82.8 | 0.942 | 72.2 |
| TUBGCP2 (GeneID 10844) | 2 | 0.47 | 91.2 | 1.36 | 71.2 |
| TUBGCP2 (GeneID 10844) | 3 | -0.587 | 70.2 | -0.607 | 92 |
| RSAD1 (GeneID 55316) | 1 | 0.0302 | 82.5 | 0.83 | 74.1 |
| RSAD1 (GeneID 55316) | 2 | -1.02 | 61.6 | -0.398 | 76.4 |
| RSAD1 (GeneID 55316) | 3 | 1.09 | 104 | 0.586 | 99.2 |
| RSPO1 (GeneID 284654) | 1 | -0.111 | 79.7 | 0.00907 | 88.8 |
| RSPO1 (GeneID 284654) | 2 | -0.5 | 71.9 | -0.568 | 93.4 |
| RSPO1 (GeneID 284654) | 3 | -0.205 | 77.8 | -0.118 | 89.7 |
| C22orf23 (GeneID 84645) | 1 | -1.46 | 52.8 | -1.32 | 83.6 |
| C22orf23 (GeneID 84645) | 2 | 0.406 | 90 | 0.0267 | 99.8 |
| C22orf23 (GeneID 84645) | 3 | -0.266 | 76.6 | 1.05 | 64.9 |
| MSS51 (GeneID 118490) | 1 | 0.305 | 88 | 0.667 | 82.5 |
| MSS51 (GeneID 118490) | 2 | -0.603 | 69.9 | -0.481 | 88.6 |
| MSS51 (GeneID 118490) | 3 | 1.27 | 107 | 0.214 | 113 |
| STX10 (GeneID 8677) | 1 | -1.64 | 49.3 | -0.862 | 69.2 |
| STX10 (GeneID 8677) | 2 | -0.564 | 70.7 | -0.643 | 93.5 |
| STX10 (GeneID 8677) | 3 | 1.29 | 107 | 1.19 | 87.7 |
| MAF (GeneID 4094) | 1 | -1.05 | 61.1 | -0.952 | 87.7 |
| MAF (GeneID 4094) | 2 | 0.34 | 88.6 | 0.0735 | 97.2 |
| MAF (GeneID 4094) | 3 | 1.95 | 121 | 2.07 | 78.2 |
| GRM7 (GeneID 2917) | 1 | 0.603 | 93.9 | 0.149 | 101 |
| GRM7 (GeneID 2917) | 2 | -1.04 | 61.1 | -1.52 | 102 |
| GRM7 (GeneID 2917) | 3 | -0.906 | 63.9 | -0.391 | 79.1 |
| SYMPK (GeneID 8189) | 1 | -1.51 | 51.9 | -1.99 | 98 |
| SYMPK (GeneID 8189) | 2 | -2.24 | 37.4 | -3.01 | 92.3 |
| SYMPK (GeneID 8189) | 3 | -2.22 | 37.7 | -2.13 | 73.7 |
| C16orf89 (GeneID 146556) | 1 | 2.82 | 138 | 2.15 | 87.6 |
| C16orf89 (GeneID 146556) | 2 | 1.2 | 106 | 0.693 | 98.5 |
| C16orf89 (GeneID 146556) | 3 | 0.195 | 85.8 | 0.257 | 89.6 |
| HID1 (GeneID 283987) | 1 | 0.559 | 93 | 0.444 | 92.5 |
| HID1 (GeneID 283987) | 2 | -0.0676 | 80.5 | 0.011 | 89.7 |
| HID1 (GeneID 283987) | 3 | 0.236 | 86.6 | 0.191 | 92 |
| NCOR1P2 (GeneID 729490) | 1 | -0.713 | 67.7 | -0.992 | 98.2 |
| NCOR1P2 (GeneID 729490) | 2 | 1.19 | 106 | 1.12 | 88 |
| NCOR1P2 (GeneID 729490) | 3 | 0.153 | 84.9 | -0.044 | 96 |
| GPR141 (GeneID 353345) | 1 | 1.55 | 113 | 0.234 | 119 |
| GPR141 (GeneID 353345) | 2 | -0.719 | 67.6 | -0.614 | 88.8 |
| GPR141 (GeneID 353345) | 3 | -0.954 | 62.9 | -0.415 | 78.4 |

Entries listed so far whose gene name starts with G or g:
| gene | reagent no. | total luciferase, z-score | total luciferase, % of control | luciferase per cell, z-score | viable cells, % of control |
| --- | --- | --- | --- | --- | --- |
| GRM7 (GeneID 2917) | 1 | 0.603 | 93.9 | 0.149 | 101 |
| GRM7 (GeneID 2917) | 2 | -1.04 | 61.1 | -1.52 | 102 |
| GRM7 (GeneID 2917) | 3 | -0.906 | 63.9 | -0.391 | 79.1 |
| GPR141 (GeneID 353345) | 1 | 1.55 | 113 | 0.234 | 119 |
| GPR141 (GeneID 353345) | 2 | -0.719 | 67.6 | -0.614 | 88.8 |
| GPR141 (GeneID 353345) | 3 | -0.954 | 62.9 | -0.415 | 78.4 |
